We go through one compound from paper PMC6390652 (Toxicological Sciences, 2018).

This series relates to Caco-2 cells. Conditions: human.

For `CCCCc1oc2ccccc2c1C(=O)c1cc(I)c(OCCN(CC)CC)c(I)c1` [Amiodarone], the “Caco-2 TEER IC15/Cmax” value was 7.
